Laboratory results from PubChem BioAssay AID485298 (National Center for Advancing Translational Sciences (NCATS), 2010).
Screen size: about 320,000 compounds; about 740 (0.23%) were called active. The inconclusive results got no clear call from the source; some entries with a clear call stand among them for comparison. The call rests on the fitted dose curve; in most records, active means well fitted activation curve with a large enough effect; inconclusive means small, poorly fitted or top-dose-only effect; inactive means no such curve, though single readings can be large or run the other way. Potencies beside an inconclusive call are fits to weak or partial responses and may not hold up.

Test: qHTS Assay for Small Molecule Inhibitors of Mitochondrial Division or Activators of Mitochondrial Fusion; further: nearly all actives have a fitted effect of over 45% in size; on growth rescue (activation): % of control where 0% means no effect
Details: S. cerevisiae fusion-defective mutant growth rescue, CellTiterGlo 48 h; growth rescue (activation): at 46.1 µM (top of the series) unless noted
Description: NIH Chemical Genomics Center [NCGC] NIH Molecular Libraries Probe Production centers Network [MLPCN] MLPCN Grant: MH081279-01 Assay Submitter (PI): Jodi M. Nunnari NCGC Assay Overview: The budding yeast S. cerevisiae is a powerful system to study mitochondrial fusion. Unlike other organisms, yeast cells without functional mitochondrial DNA (mtDNA) can be propagated and studied as long as they maintain a mitochondrial compartment and are provided with a fermentable carbon source. When mitochondrial fusion is blocked in yeast, mitochondrial tubules rapidly fragment and division continues unopposed. Under conditions where fusion is compromised in mammalian cells, nearly identical changes in mitochondrial structure have been observed. Thus, these findings indicate that steady state mitochondrial structure in cells is a characteristic and specific indicator of fusion activity. Mounting evidence has pointed to a connection between mitochondrial dynamics and apoptosis in mammalian cells. These studies indicate that in mammalian cells mitochondrial dynamics are more integrated into cellular processes than in yeast cells and have evolved not only to distribute the organelle but also to aid in the regulation of cellular homeostasis. Mitochondrial fusion proteins attenuate apoptosis by inhibiting the release of cytochrome c from mitochondria, in part by controlling cristae structures. Thus, small molecules that inhibit mitochondrial […] may promote apoptosis and potentially act as novel chemotherapeutics and stimulation of apoptosis has become an attractive target of anti-cancer therapies. To identify inhibitors of mitochondrial division, we exploit the growth phenotypes of mitochondrial fusion-defective mutants. The temperature sensitive fusion alleles, such as fzo1-1 and mgm1-5, cause mitochondrial membranes to fragment in cells under non-permissive conditions and cells lose mtDNA, and are unable to grow in the presence of non-fermentable carbon source glycerol. Inhibiting mitochondrial division rescues growth. We have developed and optimized a luminescence cell viability assay in 1536 well format for the identification of inhibitors in the yeast mitochondrial fusion-defective assay.
The yeast glycerol stocks where kindly supplied by the laboratory of Dr. Jodi Nunnari, University of California, Davis. All yeast glycerol stock solutions were stored in single use aliquots at -80C. The CellTiterGlo luminescence reagent, containing luciferase and luciferin, were purchased from Promega, and the reagents were stored according to manufacturer's instructions. The Buffer components for the YPEG yeast growth medium were purchased from Sigma-Aldrich (St. Louis, MO). YPEG growth medium: 1% (w/v) yeast extract, 2% (w/v) Bacto-peptone, 3% Ethanol, 3% glycerol, 0.4mM Tryptophan, 0.36mM Adenine. qHTS Assay Protocol: 1.#Dispense 2.5 ul yeast growth medium per 1536 well plate. 2.#Transfer 23 nl per well of compound to plate. 3.#Dispense 2.5 ul yeast solution at appropriate seeding density per well. 4.#Incubate for 48 hours at 37C. 5.#Dispense 5 ul of CellTiterGlow solution per well. 6.#Incubate at ambient for 10 minutes. 7.#Read using bio-luminescence protocol on Viewlux.
Potency means the concentration at half of the fitted maximal effect.

Row | SMILES | Potency | growth rescue (activation)
1 | O=[N+]([O-])c1cc(C(F)(F)F)cc([N+](=O)[O-])c1N1CCN(S(=O)(=O)c2ccccc2)CC1 | inconclusive: 17.8 µM [activator, single point] | –
2 | Cc1cc(=O)oc2c1ccc1oc(/C(=N/O)c3ccccc3)c(C)c12 | inconclusive: 15.8 µM [activator, single point] | –
3 | Cc1ccc(NC(=O)C2Cc3ccccc3CN2C(=O)c2ccccc2)cc1Cl (stereo not drawn) | inconclusive: 22.4 µM [activator, single point] | –
4 | O=C(c1ccccc1Sc1cccc2ccccc12)N1CCOCC1 | inconclusive: 11.2 µM [activator, partial curve] | –
5 | Cc1ccc(C)c(C2NC(=O)c3ccccc3N2)c1 (stereo not drawn) | – | inactive: 5.67%
6 | CC(=O)c1c(C)[nH]c(C(=O)CN2CCN(S(=O)(=O)c3ccccc3)CC2)c1C | inconclusive: 6.31 µM [activator, partial curve, poor fit] | –
7 | COc1ccc(Cc2nc3ccc(C(=O)NCCc4cccc(C)n4)cc3o2)cc1 | inconclusive: 8.91 µM [activator, full curve, poor fit] | –
8 | Cc1cc(=O)oc2c(C)c(OCC(=O)N3CCN(c4ccc(F)cc4)CC3)ccc12 | inconclusive: 11.2 µM [activator, partial curve] | –
9 | CCOC(=O)c1sc(N)c(C#N)c1COC(=O)C1=COCCO1 | inconclusive: 6.31 µM [activator, single point] | –
10 | O=C(CCS(=O)(=O)c1ccccc1)Nc1nc2ccc(F)cc2s1 | – | inactive: -3.06%
11 | COC(=O)c1ccc(NS(=O)(=O)c2ccc(SC)cc2)cc1 | inconclusive: 15.8 µM [activator, partial curve] | –
12 | CSCCC(NC(=O)c1ccc(Cl)cc1Cl)C(=O)N1CCCCCCC1 (stereo not drawn) | inconclusive: 20 µM [activator, single point] | –
13 | O=C(CSc1nnc2ncccn12)Nc1cccc2ccccc12 | – | inactive: -7.7%
14 | O=C(C1CCCN(c2ncnc3c2nc2n3CCCCC2)C1)N1CCN(c2cccc(Cl)c2)CC1 (stereo not drawn) | active: 8.91 µM | –
15 | COc1ccc(-c2cc(C(=O)Nc3ccc(Cl)cc3Cl)c3ccccc3n2)cc1OC | – | inactive: -0.143%
16 | CCOc1ccc(C(C(=O)NC2CCCC2)N(Cc2ccccc2)C(=O)c2nsc(Cl)c2Cl)cc1 (stereo not drawn) | inconclusive: 22.4 µM [activator, single point] | –
17 | COC(=O)N1C(=O)[C@@](Cc2ccccc2)(c2ccccc2)N1C(=O)OC | – | inactive: -2.04%
18 | Cc1ccc(OCc2nnc(SCC(=O)c3ccccc3)n2-c2ccccc2)cc1 | inconclusive: 12.6 µM [activator, partial curve] | –
19 | CN(C)CCCN(Cc1ccccc1)C(=S)Nc1ccc(F)c(Cl)c1 | – | inactive: -3.65%
20 | O=C(Nc1nc(-c2cccs2)cs1)c1ccc(S(=O)(=O)N2CCCCC2)cc1 | inconclusive: 11.2 µM [activator, partial curve] | –
21 | CCOc1ccc(NC(=O)C(C)Oc2ccccc2C(=O)Nc2cccc(Cl)c2Cl)cc1 (stereo not drawn) | – | inactive: 2.82%
22 | Cc1nn(-c2ccccc2)c(C)c1/C=N/NC(=O)c1cc(C23CC4CC(CC(C4)C2)C3)[nH]n1 | inconclusive: 25.1 µM [activator, single point] | –

Whole records, quoted from the list. Order of values: Potency	growth rescue (activation)
`O=C(CSc1nnc2ncccn12)Nc1cccc2ccccc12` is listed as –	inactive: -7.7%
`COc1ccc(-c2cc(C(=O)Nc3ccc(Cl)cc3Cl)c3ccccc3n2)cc1OC` is listed as –	inactive: -0.143%

The list goes on:

Row | SMILES | Potency | growth rescue (activation)
23 | CCOC(=O)/C=C/C(=O)Nc1ccc(Oc2ccccc2)cc1 | – | inactive: 3.24%
24 | Cc1ccc(CN(C)C(=O)c2cc(COc3cccc(C(F)(F)F)c3)on2)o1 | – | inactive: 2.43%
25 | O=C(CSc1ccc(-c2ccc(Cl)cc2)nn1)N1CCCc2ccccc21 | inconclusive: 17.8 µM [activator, single point] | –
26 | O=S(=O)(c1ccccc1)N1CCN(C(=S)NCCc2ccccc2)CC1 | inconclusive: 35.5 µM [activator, single point] | –
27 | Oc1c(-c2cc(-c3ccco3)[nH]n2)ccc2ccccc12 | inconclusive: 12.6 µM [activator, partial curve] | –
28 | COc1ccc([C@H]2CC(=O)C=C(c3ccc4c(c3)OCO4)C2)cc1 | inconclusive: 17.8 µM [activator, single point] | –
29 | COCCn1c(SCc2csc(-c3ccccc3)n2)nc2ccccc21 | – | inactive: 29%
30 | C[C@@H](NC(=O)c1[nH]cnc1C(=O)Nc1cccc(Cl)c1)c1ccccc1 | inconclusive: 11.2 µM [activator, single point] | –
31 | CSc1ncccc1C(=O)Nc1cccc(S(=O)(=O)N(C)c2ccccc2)c1 | inconclusive: 22.4 µM [activator, single point] | –
32 | O=C(c1cccc(S(=O)(=O)N2CCN(c3ccccc3)CC2)c1)N1CCCCCCC1 | inconclusive: 3.16 µM [activator, partial curve] | –
33 | COc1cc2c(cc1OC)/C(=C/c1ccc(Br)cc1)C(=O)OC2 | active: 15.8 µM | –
34 | C/C(=N/NC(=O)c1ccoc1C)c1ccc(NC(=O)C2CCCC2)cc1 | inconclusive: 12.6 µM [activator, partial curve] | –
35 | COC(=O)CNC(=O)C(Cc1ccccc1)NS(=O)(=O)c1ccc2c(c1)c(=O)n(C)c(=O)n2C (stereo not drawn) | inconclusive: 17.8 µM [activator, partial curve] | –
36 | COc1ccc(-c2csc(N3C(=O)CNC3=S)n2)cc1 | inconclusive: 5.62 µM [activator, single point] | –
37 | O=C(Nc1ccc2c(c1)OCO2)Nc1cnccn1 | – | inactive: 6.51%
38 | CCC(=O)Nc1cccc(-c2csc(-c3ccccc3)n2)c1 | inconclusive: 11.2 µM [activator, partial curve] | –
39 | COC(=O)[C@@]12CCCCN1[C@H](c1ccc(-c3cccc(Cl)c3)c(OC)c1)[C@@H]1C(=O)N(C)C(=O)[C@@H]12 | inconclusive: 8.91 µM [activator, partial curve] | –
40 | CC(NC(=O)CCCCCN1C(=O)c2ccccc2C1=O)c1ccc2c(c1)CCCC2 (stereo not drawn) | inconclusive: 22.4 µM [activator, single point] | –
41 | CCCCC/C=N\NC(=O)Cc1ccc([N+](=O)[O-])cc1 | – | inactive: 1.39%
42 | CC1CCCC(NS(=O)(=O)c2cc(Br)cnc2N)C1C (stereo not drawn) | inconclusive: 12.6 µM [activator, partial curve] | –
43 | CC(=O)Nc1ccc(NC(=O)C(NS(=O)(=O)c2cccc3nsnc23)C(C)C)cc1 (stereo not drawn) | – | inactive: 0.618%
